Source: patent US20250340660A1
Substitutions are numbered along the chain they refer to. These are yes or no findings as the source states them, for the method shown. Some results given as binding are weak or reduced against the parent protein; the word gives no strength.

Protein sequences, listed by entry. Tags and fused reporters are not part of them. Residues count along the entry.
UniProt P32971, residues 63-234: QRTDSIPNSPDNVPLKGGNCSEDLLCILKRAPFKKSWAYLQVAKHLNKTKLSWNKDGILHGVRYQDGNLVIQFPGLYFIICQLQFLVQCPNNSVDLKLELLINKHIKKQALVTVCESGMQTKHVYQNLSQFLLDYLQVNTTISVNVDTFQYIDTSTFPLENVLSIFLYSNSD

B1: anti-CD30L antibody clone 1 (antibody, V domains shown)
VH: QVQLQESGPGLVKPSETLSLTCTVSGGSISGYYWSWIRQPPVKGLEWIGYIFYSGYTKYNPSLKSRVTISVDTSKNQFSLKLSSVTAADTAVYYCARDRWDFDYWGQGALVTVSS
VL: AIQMTQSPSYLSASVGDRVTIACRASQGIRNNLGWYQQKPGKAPKLLIYAESSLQSGVPSRFSGSGSGTDFTLTISSLQPEDFATYYCLQDFNYPYTFGQGTKLEIK
B2: anti-CD30L antibody clone 2 (antibody, V domains shown)
VH: EVQLVESGGGLVQPGRSLRLSCAASGFNFDDYAMHWVRQAPGKGLEWVSGISWRSGNIGYAGSVKGRFTISRDNAKNSLYLQMNSLRPEDSALYYCAKDKGIGFNWNYEGFDYWGQGTLVTVSS
VL: DIQMTQSPSSLSASVGDRVTITCRASQGISNHLAWFQQKPGKAPKSLIYAASSLQSGVPSKFSGSGSGTDFTLTISSLQPEDFATYYCQQYVTYPLTFGGGTKVEIK
B3: anti-CD30L antibody Clone 1 (parental) (antibody, V domains shown)
VH: B1 VH
VL: B1 VL
B4: anti-CD30L antibody Clone 2 (parental) (antibody, V domains shown)
VH: B2 VH
VL: B2 VL
B5: anti-CD30L antibody clone 2 germlined (antibody, V domains shown)
VH: B2 VH with G62D, P88A, S91T
VL: B2 VL with K61R
B6: Fab of anti-CD30L clone 2 germlined (Fab, V domains shown)
VH: B2 VH with G62D, P88A, S91T
VL: B2 VL with K61R

How the values were obtained:
[1] = target: recombinant human CD30L (human) (UniProt P32971); assay: Carterra SPR binning; mAb coupled to the HC30M chip captures rhCD30L
[2] = target: recombinant cynomolgus CD30L protein (cynomolgus); assay: ELISA with purified CD30L
[3] = target: cynomolgus CD30L expressed on HEK293 cells (cynomolgus); assay: flow cytometry on CD30L-expressing B16 or HEK293 cells
[4] = target: recombinant cynomolgus CD30L protein (cynomolgus); assay: KinExA, Fab in solution

Row | Binder | binding [1] | binding [2] | binding [3] | binding [4]
1 | B1 | binds |  |  | 
2 | B2 | binds |  |  | 
3 | B3 |  | binds | binds | 
4 | B4 |  | binds | binds | 
5 | B5 |  | binds | binds | 
6 | B6 |  |  |  | binds
